Test results from publication PMC11733299.
These are yes or no findings as the source states them, for the method shown. Binding seen in cells or lysates may run through a third protein. Some entries that bind do so weakly or less than the wild type. Where a sequence is shown, tags or fusion partners need not be part of it.

T1: CPK1-Myc (Arabidopsis thaliana) (UniProt Q06850)
T1 sequence: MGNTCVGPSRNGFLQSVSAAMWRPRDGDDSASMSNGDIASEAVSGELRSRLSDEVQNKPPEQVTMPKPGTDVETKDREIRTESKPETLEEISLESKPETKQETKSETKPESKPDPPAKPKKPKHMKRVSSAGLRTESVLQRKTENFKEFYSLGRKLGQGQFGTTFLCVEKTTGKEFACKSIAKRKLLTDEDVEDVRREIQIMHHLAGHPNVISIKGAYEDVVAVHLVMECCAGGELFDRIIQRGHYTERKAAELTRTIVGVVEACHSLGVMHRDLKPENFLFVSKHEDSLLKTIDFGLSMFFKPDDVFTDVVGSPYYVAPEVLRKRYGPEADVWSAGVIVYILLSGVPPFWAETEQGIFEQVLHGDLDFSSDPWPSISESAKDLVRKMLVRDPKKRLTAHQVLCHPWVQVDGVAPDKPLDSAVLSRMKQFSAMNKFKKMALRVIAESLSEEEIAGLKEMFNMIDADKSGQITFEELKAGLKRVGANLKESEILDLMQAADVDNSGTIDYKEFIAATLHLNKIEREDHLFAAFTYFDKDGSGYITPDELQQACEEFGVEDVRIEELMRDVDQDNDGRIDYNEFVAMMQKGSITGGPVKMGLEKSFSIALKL


Target: T1, CPK1-Myc (Arabidopsis thaliana)
Assay: co-IP; co-expression in N. benthamiana leaves; extract in 150 mM NaCl, 1 mM EDTA, 0.05% NP40, 20 mM Tris-HCl pH 7.5; anti-Myc agarose 6 h at 4 °C; blots with anti-Myc and anti-Flag

Row | binding | Binder
1 | binds | CNGC9-N-Venus-Flag (domain or fragment, UniProt Q9M0A4 1-117) MLDCGKKAVKSQVISGRLEKFVRLDSMDSRYSQTSDTGLNRCTLNLQGPTRGGGAQGNNVSSGSFKKGFRKGSKGLWSIGRSIGLGVSRAVFPEDLKVSEKKIFDPQDKFLLLCNKL
2 | binds | CNGC6-N-Venus-Flag (domain or fragment, UniProt O82226 1-116) MFDTCGPKGVKSQVISGQRENFVRLDSMDSRYSQSSETGLNKCTLNIQGGPKRFAQGSKASSGSFKKGFRKGSEGLWSIGRSIGLGVSRAVFPEDLEVSEKKIFDPQDKFLLLCNK
3 | binds | CNGC5-N-Venus-Flag (domain or fragment, UniProt Q8RWS9 1-102) MAGKRENFVRVDDLDSRLPSSSVAFQQNYASNFSGQLHPIHASNETSRSFKKGIQKGSKGLKSIGRSLGFGVYRAVFPEDLKVSEKKIFDPQDKFLLYCNKL
